{"source": "PubChem BioAssay AID248", "about": "(DTP/NCI, 2004)", "system": "L1210 leukemia ip in BDF1 mice, survival T/C", "experiment": "NCI In Vivo Anticancer Drug Screen. Data for tumor model L1210 Leukemia (intraperitoneal) in B6D2F1 (BDF1) mice", "settings": "T/C endpoint: mean survival time, higher T/C = longer survival", "key": {"[1]": {"settings": "dose: 400.0 mg/kg/injection, schedule: Q01DX001 (ip), vehicle: saline"}}, "note": "The list is a part of this screen's results and no random one: it gathers tests that were run many times, whatever their T/C, doses with no T/C, and many T/C values between a quarter and a half above the control. Other doses and runs of a compound stand elsewhere. T/C: endpoint of the treated group in % of that of the vehicle group. Some doses have a count of surviving animals in place of a T/C: the source files T/C as zero there, which appears to mark a toxic dose or a test without result, not a measured value. Some doses without a T/C left all or most animals alive at the check, yet need not have been tolerated: the source hardly ever lists a survival T/C far under the control, and the zero likely stands for such cases as well. Survivors were counted at the toxicity check, usually on the fifth day, unless a day is given; later deaths do not show. Schedules are NCI's codes, taken here to give the interval after Q, in days (D) or hours (H), and the number of doses after X.", "data": [{"smiles": "C/C=C/C(=O)OCCC[N+](C)(C)C", "values": [{"measurement": "survivor count", "setting": "dose: 6.25 mg/kg/injection, schedule: Q01DX009 (ip), vehicle: saline", "value": "0 of 6"}, {"measurement": "survivor count", "setting": "dose: 12.5 mg/kg/injection, schedule: Q01DX009 (ip), vehicle: saline", "value": "0 of 6"}, {"measurement": "survivor count", "setting": "dose: 25.0 mg/kg/injection, schedule: Q01DX009 (ip), vehicle: saline", "value": "0 of 6"}, {"measurement": "survivor count", "setting": "dose: 50.0 mg/kg/injection, schedule: Q04DX003 (ip), vehicle: saline", "value": "2 of 6"}, {"measurement": "survivor count", "setting": "dose: 100.0 mg/kg/injection, schedule: Q04DX003 (ip), vehicle: saline", "value": "0 of 6"}, {"measurement": "survivor count", "setting": "dose: 200.0 mg/kg/injection, schedule: Q04DX003 (ip), vehicle: saline", "value": "0 of 6"}, {"measurement": "survivor count", "setting": "dose: 400.0 mg/kg/injection, schedule: Q04DX003 (ip), vehicle: saline", "value": "0 of 6"}]}, {"smiles": "Cc1cccc(Cl)c1NC(=O)CN(C)C", "values": [{"measurement": "survivor count", "setting": "[1]", "value": "2 of 4"}]}, {"smiles": "CC1CCN1c1ccccc1", "note": "(configuration not stated)", "values": [{"measurement": "survivor count", "setting": "dose: 200.0 mg/kg/injection, schedule: Q04DX003 (ip), vehicle: acetone", "value": "6 of 6"}, {"measurement": "survivor count", "setting": "dose: 400.0 mg/kg/injection, schedule: Q04DX003 (ip), vehicle: acetone", "value": "1 of 6"}]}, {"smiles": "c1ccc2cc(CCSSCCc3ccc4ccccc4c3)ccc2c1", "values": [{"measurement": "survivor count", "setting": "dose: 100.0 mg/kg/injection, schedule: Q01DX001 (ip), vehicle: saline", "value": "4 of 4"}, {"measurement": "survivor count", "setting": "[1]", "value": "4 of 4"}]}]}
